According to BigSolDB 2.1:

CC(C)c1c(C(=O)Nc2ccccc2)c(-c2ccccc2)c(-c2ccc(F)cc2)n1CC[C@@H](O)C[C@@H](O)CC(=O)[O-].CC(C)c1c(C(=O)Nc2ccccc2)c(-c2ccccc2)c(-c2ccc(F)cc2)n1CC[C@@H](O)C[C@@H](O)CC(=O)[O-].O.O.O.[Ca+2]
solubility (mole fraction)
Conditions	in acetone	in ethyl acetate	in isobutanol	in isobutyl acetate	in n-butanol	in n-butyl acetate	in n-octanol	in n-propanol	in water
293.15 K	0.0106	0.00164	0.000134	0.000141	0.000129	0.000609	5.8e-05	0.000204	1.9e-06
298.15 K	0.0121	0.00224	0.000155	0.000185	0.000183	0.000702	5.8e-05	0.000264	2.1e-06
303.15 K	0.0134	0.0029	0.000238	0.00029	0.000264	0.000891	9.4e-05	0.000379	2.2e-06
308.15 K	0.0161	0.00359	0.00036	0.000426	0.000389	0.00116	0.000135	0.000533	2.3e-06
313.15 K	0.0192	0.00415	0.000521	0.00068	0.000574	0.00154	0.000197	0.000735	2.4e-06
318.15 K	0.0227	0.00461	0.000776	0.00103	0.000865	0.00206	0.000263	0.00103	2.8e-06
323.15 K	0.0259	0.00513	0.000976	0.00143	0.00121	0.00273	0.000423	0.0014	3.3e-06
328.15 K	0.0297	0.00571	0.00121	0.00196	0.00162	0.00362	0.000638	0.00177	3.9e-06
